# ± gives the standard deviation. This is a selection; strong and weak results do not stand in their true shares. Many entries were measured with a wide error.
# Test system: EfPiwi piRISC loaded with piRNA #1 (26 nt)
# Assay: pre-steady-state target cleavage rate (min^-1); guide: piRNA #1 5'p-UGAGGUAGUAGGUUGUAUAGUAUCCA; MIWI and MILI are mouse PIWI proteins and EfPiwi is from a freshwater sponge; tags in brackets are library labels; higher = faster piRNA-guided slicing of the target
# Settings: auxiliary factor: 500 nM Ephydatia muelleri Gtsf1
# How it was run: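 Cleave-'n-Seq reactions paired 0.1 nM transcribed, DNA-blocked target RNA library with 1 nM active affinity-purified piRISC holding one synthetic guide, plus or minus 500 nM GTSF1 partner protein, in HEPES–potassium acetate buffer at 33 °C for 0–8 or 0–960 min. After sequencing of uncleaved targets and normalisation to depth and weakly complementary targets, the pre-steady-state cleavage rate was taken from a burst-and-steady-state fit. Three trials were pooled, and k3 was capped at 0.0001 min^-1.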
row,Sequence,pre-steady-state target cleavage rate
1,GGAGACCUUACUAUACAAGCUUCUACCUCA,0.00239 ± 0.0025
2,GGAGACCUAUGUUAUACAACCUACUACCUCA,0.0122 ± 0.0063
3,GGAGACCUAACUAUACAACCUACUACCACA,0.00545 ± 0.0034
4,GGAGAGGAUACUAUACAUGCUACUACCUCA,0.0065 ± 0.0032
5,GGAGACCUAACUAUACACCCUACUACCUCA,0.00682 ± 0.0033
6,GGAGACCUUACUAUACAGCCUACUACCUCA,0.068 ± 0.028
7,GGAGUGGAUACUAUACAACCUACUACCUCA [g2:g26:cont:t1A],0.176 ± 0.056
8,GGAGAGGAUACUUAACAACCUACUACCUCA,0.00417 ± 0.0044
9,GGAGACCUAUGUAUACAACCUACUAACUCA,0.00121 ± 0.0063
10,GGAGACCUAUCUAUACAACCUACUCCCUCA,0.00378 ± 0.0047
11,GGAGUGGAUACUAUACAACCUACUUCCUCA,0.00544 ± 0.0029
12,GGAGACCAUAUUAUACAACCUACUACCUCA,0.116 ± 0.036
13,GGAGACCUAUCAAUACAACCUACUAGCUCA,0.00221 ± 0.0046
14,GGAGACCUAUGUAUACAUGGAUGAUGGAGA [g14:g19:cont:t1A],0.000213 ± 0.017
15,GGAGACCAUACUAUACAAGCUACUACCUGA,0.00543 ± 0.0026
16,GGAGUGGAUACUAUACAACCUACUACCUUA,0.276 ± 0.095
17,GGAGACCUUACUAUACAAGGAUGAUGGAGA [g13:g22:cont:t1A],0.000257 ± 0.011
18,GGAGACCAUACUAUACAACAUACUACCUCA,0.00326 ± 0.0021
19,GGAGACCUUACUAUUCAAGCUACUACCUCA,0.00223 ± 0.0055
20,GGAGACGAUACUAUACAACCAAGUACCUCA,0.00215 ± 0.0019

row,Sequence,pre-steady-state target cleavage rate
1,GGAGACCUUAGUAUACAACCUACUUCCUCA,0.00151 ± 0.0031
2,GGAGACCUAACUAUACAACCUACUACGAGA,0.00515 ± 0.0032
3,GGAGACGAUACUAUACAACCUACUGCCUCA,0.00691 ± 0.0024
4,GGAGAGGAUACUACACAACCUACUACCUCA,0.00871 ± 0.004
5,GGAGUGGAUACUAAACAACCUACUACCACA,0.003 ± 0.0021
6,GGAGACCUAACUAAACAACCUACUAGCUCA,0.000237 ± 0.015
7,GGAGACCAUACUAUACAACCUACUCACCUCA,0.00397 ± 0.0041
8,GGAGACGAUACUAUUCAACCAACUACCUCA,0.00444 ± 0.002
9,GGAGAGGAUUCUAUACAACCUACUUCCUCA,0.00104 ± 0.0038
10,GGAGUGGAUACUAUACAAGGAACUACCUCA,0.00208 ± 0.0036
11,GGAGACCUAUCUAUACAACCUACUCACCUCA,0.00113 ± 0.009
12,GGAGACCUUACUAUACAACGUACAACCUCA,0.00369 ± 0.0054
13,GGAGACCUUACUAUACAACCUACUCACCUCA,0.00199 ± 0.0063
14,GGAGACCAUACUUUACAAGCUACUACCUCA,0.00123 ± 0.0036
15,GGAGAGGAUACUGUACAACCUACUACCUCA,0.0789 ± 0.029
16,GGAGACCUAACUAUACAAGCUACUUCCUCA,0.00164 ± 0.0025
17,GGAGACCUAUGAUAUGUUCCUACUACCUCG [g2:g12:cont:t1G],0.000292 ± 0.014
18,GGAGACCAUACUAUACAACGUACUACGUCA,0.00198 ± 0.0022
19,GGAGACCUAUCUAUACAACGUACUACGUCA,0.00215 ± 0.0025
20,GGAGACCUAUGUAUACAACCUACAUACCUCA,0.000953 ± 0.0079

# Rewritten with tabs: entries from further up.
row	Sequence	pre-steady-state target cleavage rate
12	GGAGACCUUACUAUACAACGUACAACCUCA	0.00369 ± 0.0054
13	GGAGACCUUACUAUACAACCUACUCACCUCA	0.00199 ± 0.0063
14	GGAGACCAUACUUUACAAGCUACUACCUCA	0.00123 ± 0.0036
15	GGAGAGGAUACUGUACAACCUACUACCUCA	0.0789 ± 0.029
16	GGAGACCUAACUAUACAAGCUACUUCCUCA	0.00164 ± 0.0025
17	GGAGACCUAUGAUAUGUUCCUACUACCUCG [g2:g12:cont:t1G]	0.000292 ± 0.014
18	GGAGACCAUACUAUACAACGUACUACGUCA	0.00198 ± 0.0022
19	GGAGACCUAUCUAUACAACGUACUACGUCA	0.00215 ± 0.0025
20	GGAGACCUAUGUAUACAACCUACAUACCUCA	0.000953 ± 0.0079

# — the supplement of paper PMC10338343
